Measured values as given in PubChem BioAssay AID504467 (National Center for Advancing Translational Sciences (NCATS), 2011).
The whole screen tested about 330,000 compounds, of which about 7,700 (2.3%) were called active. The inconclusive results got no clear call from the source; some entries with a clear call stand among them for comparison. Calls come from the whole dose curve; as a rule, active = well fitted inhibition curve with a large enough effect; inconclusive = small, poorly fitted or top-dose-only effect, or effect the other way; inactive = flat fitted curve, though single readings scatter. Where the call is inconclusive, the potency comes from a doubtful curve fit.

test: qHTS screen for small molecules that inhibit ELG1-dependent DNA repair in human embryonic kidney (HEK293T) cells expressing luciferase-tagged ELG1; conditions: HEK293T ELG1-luciferase reporter, luminescence, 16 h, DNA damage induced by 5-fluorouridine; activity change, negative = inhibition: at 46.1 µM (top of the series); note: nearly all actives have a fitted effect of over 55% in size
Method in brief: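 Quantitative HTS, concentration-response format. 2,000 cells/well co-treated with 5-fluorouridine and compound, 16 hr in 5% CO2 at 37 °C; ONE-Glo luminescence read after 30 min.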
% is set by controls: 0 for no effect and ±100 for the full control effect; potency is the fitted concentration of half-maximal effect.

SMILES | activity change, negative = inhibition | Potency
CCc1cc(SC#N)ccc1N | inactive: -5.26% | 
CC1CCCC(NC(=O)c2nn(C)c3c2CS(=O)(=O)c2ccccc2-3)C1C (centres undefined) |  | inconclusive: 20.6 µM [inhibitor, partial curve]
O=c1c2ccccc2nc(SCc2cn3ccsc3n2)n1-c1ccccc1 |  | inconclusive: 29.1 µM [inhibitor, single point]
COc1cccc(-c2cc(C(=O)Nc3ccn(Cc4ccc(C)cc4)n3)no2)c1 |  | inconclusive: 23.1 µM [inhibitor, single point]
O=C(NNC(=O)C12CC3CC(CC(C3)C1)C2)c1ccccc1O | inactive: 3.02% | 
Cc1cc(C(=O)COC(=O)CN(C)S(=O)(=O)c2ccc(Cl)cc2)c(C)n1Cc1cccs1 |  | inconclusive: 16.4 µM [activator, partial curve, poor fit]
CCC1CN(C(=O)N2CCC(C(=O)NCCc3ccccc3OC)CC2)c2ccccc2O1 (centres undefined) |  | inconclusive: 25.9 µM [inhibitor, single point]
CC12C(=O)N(c3ccc(C(=O)N4CCOCC4)cc3)C(=O)C1C1c3ccccc3C2c2ccccc21 (centres undefined) |  | inconclusive: 11.6 µM [inhibitor, partial curve]
C[C@H]1CCC[C@@]2(O[C@@H](CCO)C[C@@H](O)[C@@H]2O)O1 | inactive: 14.4% | 
CCCC(c1nnnn1Cc1ccco1)N1CCN(C(=O)c2ccco2)CC1 (centres undefined) | inactive: 3.21% | 
CC(=O)N1CCc2cc(S(=O)(=O)NCCC(=O)N3CCN(c4ccccn4)CC3)ccc21 |  | inconclusive: 18.4 µM [inhibitor, partial curve, poor fit]
COc1ccc(C(=O)c2cn[nH]c2-c2ccc(C)cc2O)cc1 | inactive: -15.6% | 
Cc1ccc2nc(-c3cccnc3SCC(=O)N3c4ccccc4CC3C)[nH]c2c1 (centres undefined) |  | inconclusive: 4.11 µM [activator, full curve]
O=C1c2ccc(Cl)cc2S(=O)(=O)c2cccc(C(=O)N3CCC(Cc4ccccc4)CC3)c21 |  | inconclusive: 20.6 µM [inhibitor, single point]
COc1ccc(-c2ccc(=O)n(Cc3cccc([N+](=O)[O-])c3)n2)cc1 |  | inconclusive: 20.6 µM [inhibitor, single point]
Cc1ccccc1OCC1Cc2c(nc(N)c(C#N)c2N)O1 (centres undefined) |  | inconclusive: 16.4 µM [activator, partial curve]
C=CCOc1ccc(C(=O)Nc2ccc3c(c2)n(C)c(=O)n3C)cc1 |  | inconclusive: 29.1 µM [activator, single point]
CCOC(=O)c1ccc(NC2c3ccccc3C(=O)N2c2ccc(C)cn2)cc1 (centres undefined) | inactive: 2.15% | 
Cc1ccc(C(C)C)c(OCCN2CCc3ccccc3C2)c1 |  | inconclusive: 35.5 µM [activator, single point]
CCN(CC)c1ccc(NC(=O)c2ccco2)cc1 |  | inconclusive: 2.06 µM [activator, full curve]
CC(=O)c1c(C(C)=O)c(C)n(Cc2ccc3c(c2)OCO3)c1C |  | inconclusive: 12.6 µM [inhibitor, partial curve]
Cc1ccc(S(=O)(=O)NN=C2C3CC4CC(C3)CC2C4)cc1 | inactive: -2.84% | 

Laid out differently: results already given

| SMILES | activity change, negative = inhibition | Potency |
| --- | --- | --- |
| CCc1cc(SC#N)ccc1N | inactive: -5.26% |  |
| COc1cccc(-c2cc(C(=O)Nc3ccn(Cc4ccc(C)cc4)n3)no2)c1 |  | inconclusive: 23.1 µM [inhibitor, single point] |
| O=C1c2ccc(Cl)cc2S(=O)(=O)c2cccc(C(=O)N3CCC(Cc4ccccc4)CC3)c21 |  | inconclusive: 20.6 µM [inhibitor, single point] |
| COc1ccc(-c2ccc(=O)n(Cc3cccc([N+](=O)[O-])c3)n2)cc1 |  | inconclusive: 20.6 µM [inhibitor, single point] |

The list continues:

SMILES | activity change, negative = inhibition | Potency
CC(=O)Oc1ccccc1-c1nc(/C=C/c2ccccc2)no1 |  | inconclusive: 8.2 µM [activator, partial curve]
COc1cc(NC(=O)c2cc(Br)cc(C)c2OC)ccc1NC(=O)C(C)C |  | inconclusive: 20.6 µM [inhibitor, single point]
CC(C)(C)c1ccc(C(=O)O/N=C(\N)c2ccccn2)cc1 |  | inconclusive: 0.58 µM [activator, full curve]
COC(=O)[C@]1(C)N[C@H](CN(C)C(=O)c2ccc(C)cc2)[C@@H]2C(=O)N(Cc3ccccc3)C(=O)[C@@H]21 | inactive: 4.93% | 
O=C(CSc1ccc2nnc(CCNC(=O)c3ccc(F)cc3)n2n1)NCC1CCCO1 (centres undefined) | inactive: -0.879% | 
O=C(c1cccc(Cl)c1)N1CCC(=O)N(C(COCc2ccccc2)Cc2ccccc2)CC1 (centres undefined) |  | inconclusive: 9.2 µM [inhibitor, partial curve, poor fit]
CC(CN1CCCC1)C(=O)NN (centres undefined) | inactive: -4.88% | 
COC(=O)/C=C/c1ccccc1S(=O)(=O)N(Cc1ccccc1)Cc1ccco1 | inactive: -23.5% | 
O=C(Nc1cccc(S(=O)(=O)N2CCOCC2)c1)C1=NN(c2ccccc2)C(=O)CC1 | inactive: -4.76% | 
CC(C)(C)C(=O)/C=c1\[nH]c(=O)/c(=C\c2ccc(F)cc2)s1 |  | inconclusive: 23.1 µM [inhibitor, partial curve]
CCOc1cc(CN2CCN(c3ncccn3)CC2)ccc1OC |  | inconclusive: 20.6 µM [inhibitor, partial curve, poor fit]
O=C(O)c1cccc(NC(=S)N/N=C/c2ccccn2)c1 |  | inconclusive: 0.411 µM [activator, partial curve, poor fit]
COC(=O)/C=C/c1ccc2c(c1)OCO2 | inactive: -12.3% | 
Cc1ccc(NC(=S)N2CCC(NC(=O)c3ccco3)CC2)cc1C | inactive: -1.21% | 
Cc1ccc(C(C)C)c(OCc2ccc(C(=O)N/N=C/c3ccc(C(=O)O)cc3)cc2)c1 |  | inconclusive: 8.2 µM [activator, partial curve]
Cc1cc(C)nc(N2N=C(c3ccccc3)CC2=O)n1 |  | inconclusive: 18.3 µM [activator, single point]
CCN(Cc1ccccc1)C(=S)Nc1cc(C(=O)OC)ccc1C(=O)OC |  | inconclusive: 29.1 µM [inhibitor, single point]
COc1ccc(CN(C)CC(=O)Nc2ccc(Cl)cc2F)c(OC)c1 |  | inconclusive: 23.1 µM [inhibitor, partial curve, poor fit]
CCn1cc([N+](=O)[O-])c(C(=O)Nc2nc3ccc(OC)cc3s2)n1 |  | inconclusive: 11.6 µM [activator, partial curve, poor fit]
COc1ccccc1N/C(=N/S(=O)(=O)c1ccc(C)cc1)c1ccccc1 | inactive: -0.993% | 
NC(=O)[C@@H]1CC2(CC(c3cccc(NC(=O)CC(c4ccccc4)c4ccccc4)c3)=NO2)CN1C(=O)COc1ccc(Cl)cc1 (some centres undefined) |  | active: 13 µM
CC(C)(C)NC(=O)c1cc2c(ccc3ccccc32)oc1=O |  | inconclusive: 14.1 µM [activator, single point]
